Drawing on patent US20240239891A1, this text covers binding for 5 molecules.

These are yes or no findings as the source states them, for the method shown. Some entries that bind do so weakly or less than the wild type.

The target of assay [1] is T1, hRNF43 ECD.
T1 sequence: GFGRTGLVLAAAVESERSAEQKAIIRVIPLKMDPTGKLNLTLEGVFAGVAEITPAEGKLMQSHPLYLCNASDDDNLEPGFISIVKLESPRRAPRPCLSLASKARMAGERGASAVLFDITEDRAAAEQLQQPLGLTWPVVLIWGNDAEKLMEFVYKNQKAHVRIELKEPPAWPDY
The assay can be described thus: SPR (Biacore), ligand hRNF43 ECD, nanobody as analyte. In general terms: SPR reads the build-up and loss of mass on a sensor chip optically.

For assay [2], the target named is T2, mRNF43 ECD.
T2 sequence: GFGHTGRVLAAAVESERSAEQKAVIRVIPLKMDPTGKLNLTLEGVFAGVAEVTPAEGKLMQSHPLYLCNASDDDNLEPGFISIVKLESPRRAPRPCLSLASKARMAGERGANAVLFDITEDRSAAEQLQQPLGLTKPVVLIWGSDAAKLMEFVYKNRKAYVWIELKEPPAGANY
Put plainly: SPR (Biacore), ligand mRNF43 ECD, nanobody as analyte.

For assay [3], the target named is hZNRF3 ECD. The assay can be described thus: SPR (Biacore), ligand hZNRF3 ECD, nanobody as analyte.
Assay [4] addresses mZNRF3 ECD. Put plainly: SPR (Biacore), ligand mZNRF3 ECD, nanobody as analyte.
Assay [5] has as its target T3, extracellular domain (ECD) of human GRAIL (RNF128) (human) (UniProt Q8TEB7).
T3 sequence (looked up): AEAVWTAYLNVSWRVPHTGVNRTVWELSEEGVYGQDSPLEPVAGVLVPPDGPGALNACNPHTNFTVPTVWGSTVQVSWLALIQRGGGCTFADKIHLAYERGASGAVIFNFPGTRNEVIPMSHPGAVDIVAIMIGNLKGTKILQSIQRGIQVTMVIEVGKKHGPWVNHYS
Put plainly: SPR (Biacore), ligand hRNF128 ECD (GRAIL), nanobody as analyte.

The target of assay [6] is T3, extracellular domain (ECD) of human GRAIL (RNF128) (human). Put plainly: SPR (Biacore), ligand hRNF128 ECD (GRAIL), nanobody as analyte [CONT. 3].
For assay [7], the target named is T4, extracellular domain (ECD) of human GOLIATH (RNF130) (human) (UniProt Q86XS8).
T4 sequence (looked up): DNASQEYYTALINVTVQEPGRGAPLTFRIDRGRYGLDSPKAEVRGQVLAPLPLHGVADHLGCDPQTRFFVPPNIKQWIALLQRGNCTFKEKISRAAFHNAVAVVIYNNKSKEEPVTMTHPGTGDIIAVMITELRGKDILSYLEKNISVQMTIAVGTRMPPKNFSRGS
Put plainly: SPR (Biacore), ligand hRNF130 ECD (GOLIATH), nanobody as analyte [CONT. 3].

Assay [8] addresses GOLIATH (RNF130) on human cells (human) (UniProt Q86XS8). The assay can be described thus: flow cytometry, human PBMC gated on CD4+ T cells, streptavidin tetramerized nanobody; unstimulated, CD3 or CD3+CD28 stimulated; controls SA647+SA and blocked.
Assay [9] has the same target. The assay can be described thus: flow cytometry, human PBMC gated on B cells [CD3- CD14- CD19+], streptavidin tetramerized nanobody; unstimulated, CD3 or CD3+CD28 stimulated; controls SA647+SA and blocked.
For assay [10] the target is unchanged. Put plainly: flow cytometry, human PBMC gated on NK cells [CD3- CD14- CD56+], streptavidin tetramerized nanobody; unstimulated, CD3 or CD3+CD28 stimulated; controls SA647+SA and blocked.
The target is the same in assay [11]. Put plainly: flow cytometry, human PBMC gated on B cells [CD3- CD14- CD19+] (title on the sheet and legend paragraph 58), streptavidin tetramerized nanobody; unstimulated, CD3 or CD3+CD28 stimulated; controls SA647+SA and blocked. Background: In flow cytometry, cells or beads pass a laser one at a time.
Assay [12] shares this target. Put plainly: flow cytometry, human PBMC gated on CD8+ T cells, streptavidin tetramerized GOLIATH nanobody (legend paragraph 56; the panel title prints GRAIL); unstimulated, CD3 or CD3+CD28 stimulated; controls SA647+SA and blocked.

B1: RNF43 VHH of SEQ ID NO: 12 (VHH)
VHH: QVQLQESGGGLVQAGGSLRLSCAASGSIFWKPVMGWYRQAPGKEREFVAAITSGTNTYYADSVKGRFTISRDNAKNTVYLQMNSLKPEDTAVYYCAVDDYDVVEYPYWGQGTQVTVSS
Take B1: the binding entry in assay [1] and in [2] was “binds” each time.

B2: ZNRF3 VHH of SEQ ID NO: 13 (VHH)
VHH: QVQLQESGGGLVQAGGSLRLSCAASGTIFYTLFMGWYRQAPGKEREFVAGIGRGGITYYADSVKGRFTISRDNAKNTVYLQMNSLKPEDTAVYYCAVWYDFLHSDSQAYSYWGQGTQVTVSS
With B2, the binding entry in assay [3] and in assay [4] was “binds” each time.

B3: GRAIL (RNF128) VHH of SEQ ID NO: 1 (VHH)
VHH: QVQLQESGGGLVQAGGSLRLSCAASGYIFYGVHMGWYRQAPGKEREFVAAIDLGTTTYYADSVKGRFTISRDNAKNTVYLQMNSLKPEDTAVYYCAVYFDGLTNLPYWGQGTQVTVSS
Turning to B3, in assay [5], the binding result is given as “binds”.

B4: GOLIATH (RNF130) VHH of SEQ ID NO: 8 (VHH)
VHH: QVQLQESGGGLVQAGGSLRLSCAASGTISFIGYMGWYRQAPGKERELVASIASGTSTYYADSVKGRFTISRDNAKNTVYLQMNSLKPEDTAVYYCAATQYIQDAHRYWGQGTQVTVSS
Consider B4, for which the binding result in assay [6], in assay [7], in assay [8], in assay [9], in assay [10] and in [11] was “binds” each time. The binding result in assay [12] was “binds”.

B5: RNF43 VHH of SEQ ID NO: 10 (VHH)
VHH: QVQLQESGGGLVQAGGSLRLSCAASGTIFDDLLMGWYRQAPGKERELVAAIGAGATTNYADSVKGRFTISRDNAKNTVYLQMNSLKPEDTAVYYCAAWWLYYKGDWALYLYWGQGTQVTVSS
For B5, the binding result in [1] is “binds”.
